The values are deposited in ChEMBL (CHEMBL3988442, “University of Dundee, Small-Polar-MMV Screening Library” (2021)).

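Growth of Mycobacterium tuberculosis over 4 days (cholesterol / DPPC medium with tyloxapol); the read-out is not stated. Concentration: 50 µM. Direction is inferred from retests: higher values go with more growth inhibition. About 69,000 compounds were tested under these conditions; 0.54% (about 370) showed 50% or more at least once.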

The filed quantity is “Percent Effect” (%).
The controls that fix the scale are not given in the record; negative values are as filed.
Compounds were drawn at random from those tested, without regard to their results.
Two or more numbers in one place are separate tests of the same structure; such repeats can differ widely.

{"compound": "Cc1nc(C)n(CC(C)C(=O)N2CCCN(C3CCCC3)CC2)n1", "stereo": "stereo not shown", "percent effect": -14.68}
{"compound": "CCOCC1CN(C(=O)Cc2cccs2)Cc2ccnn2C1", "stereo": "stereo not shown", "percent effect": -1.935}
{"compound": "c1cnc2c(C3CCN(Cc4ccsc4)CC3)n[nH]c2n1", "percent effect": -10.46}
{"compound": "Cc1nn(C)c(N(C)C)c1CNC(C)c1cccc(OC(C)C)c1", "stereo": "stereo not shown", "percent effect": 16.78}
{"compound": "CN(C)C(=O)CN1CCCCC1c1nc(N)ncc1-c1cccc(F)c1", "stereo": "stereo not shown", "percent effect": -16.53}
{"compound": "CC(NC(=O)NCCn1ccnc1)c1ccc2c(c1)NC(=O)CO2", "stereo": "stereo not shown", "percent effect": -12.36}
{"compound": "Cc1c(CN(C)c2cc(C3CCCNC3)ncn2)[nH]c2ccccc12", "stereo": "stereo not shown", "percent effect": 8.172}
{"compound": "Cc1ccc(-c2csc3c(=O)[nH]c(N4CCCC(C(=O)O)C4)nc23)cc1", "stereo": "stereo not shown", "percent effect": -2.469}
{"compound": "COc1c(CNCc2ccc(C(=O)N(C)C)cc2)c(C)nn1C.Cl", "percent effect": -1.079}
{"compound": "NC(=O)C1=NC2=NS(=O)(=O)c3ccccc3N2N1Cc1ccccc1Cl", "percent effect": 16.33}
{"compound": "O=C(c1cc(COc2ccc3c(c2)OCO3)[nH]n1)N1CCOCC1", "percent effect": 0.07057}
{"compound": "Cc1nc(C)n(CCCNc2ncnc3onc(C)c23)n1", "percent effect": -0.9256}
{"compound": "O=C(C1CCCO1)N1CCC2(CC1)CNCCO2", "stereo": "stereo not shown", "percent effect": -3.346}
{"compound": "Cc1cnn(C2CCCN(C(=O)c3cccc(Cn4ccnc4)c3)C2)c1", "stereo": "stereo not shown", "percent effect": -16.01}
{"compound": "CCCn1cnnc1CNC(=O)CC1C(=O)NCCN1CC=C(C)C", "stereo": "stereo not shown", "percent effect": "-1.445 and -3.79"}
{"compound": "O=C(O)C(F)(F)F.O=C(O)C(F)(F)F.[H][C@@]12CCCO[C@]1([H])[C@H](N(C)Cc1ccco1)CN(Cc1ccsc1)C2", "percent effect": -11.08}
{"compound": "Cc1nc(C2CCCN(C(=O)c3sc(C)nc3C)C2)no1", "stereo": "stereo not shown", "percent effect": -12.8}
{"compound": "Cc1cc(C(=O)N2CC(O)CO2)c2ccc(C)c(C)c2n1", "stereo": "stereo not shown", "percent effect": 16.34}
{"compound": "CCNC(=O)N1CCC2(C1)c1ccccc1S(=O)(=O)N2CCOC", "stereo": "stereo not shown", "percent effect": 29.05}
{"compound": "O=C(O)CSc1nccc(-c2ccc3c(c2)OCO3)n1", "percent effect": -11.67}
{"compound": "O=C(CCc1ccc(Cl)cc1)N[C@@H]1CC[C@@H](O)[C@@H]1O", "percent effect": "-5.788 and -0.6581"}
{"compound": "Cc1nc(C(=O)N2CCN(c3ccc(Cl)c(Cl)c3)CC2)cs1", "percent effect": 38.27}
{"compound": "O=C(c1ccccc1OC1CCCC1)N1CCCC(n2cncn2)C1", "stereo": "stereo not shown", "percent effect": -1.15}
{"compound": "OC(COc1ccccc1Br)COC1CCOCC1", "stereo": "stereo not shown", "percent effect": -29.08}
{"compound": "[H][C@@]12CCCN1CCCN(c1nc(-c3ccco3)nc3c1CCNCC3)C2", "percent effect": 5.845}
{"compound": "COc1ccc(Oc2nccc3occc23)cc1CN1CCCC1", "percent effect": -2.594}
{"compound": "CC(NC(N)=O)C(=O)NCc1ccnc(Oc2ccc(F)cc2)c1", "stereo": "stereo not shown", "percent effect": -1.019}
{"compound": "Cc1cccc(CNC(=O)CCc2c(C)nc3cc(O)nn3c2C)n1", "percent effect": -9.834}
{"compound": "CNC(=O)C1CCCN(C(=O)NCCC2Cc3ccccc3C2)C1", "stereo": "stereo not shown", "percent effect": -8.408}
{"compound": "Cc1ccccc1CN(Cc1ccccn1)C(=O)CNS(C)(=O)=O", "percent effect": -26}
{"compound": "Cc1nn(CCC(=O)N2CCN(Cc3cnn(C)c3C)CC2)c(C)c1Br", "percent effect": -14.4}
{"compound": "O=C(O)C(F)(F)F.[H][C@@]12CNC(=O)[C@H](C)[C@]1([H])CN(Cc1cccc(F)c1)C2", "percent effect": "-8.624 and 8.657"}
{"compound": "Cc1nc(N2CCN(C(=O)NCc3cscn3)CC2)sc1C", "percent effect": -0.2478}
{"compound": "CCc1nc(CN2CCCC(N(C)Cc3nc(C)c(C)o3)C2)no1", "stereo": "stereo not shown", "percent effect": -12.9}
{"compound": "O=C(Cc1ccsc1)N1CCC(c2ccncc2)CC1", "percent effect": -14.3}
{"compound": "NCCc1cccc(CN2CCN(c3cccc(Cl)c3)C(=O)C2)c1", "percent effect": 25.41}
{"compound": "COc1cc2c(cc1-c1nc3c(cnn3C(C)C(C)C)[nH]1)OCO2", "stereo": "stereo not shown", "percent effect": "2.683 and -2.803"}
{"compound": "CCN(C)c1ncnc2c1CCN(C(=O)N1CCOCC1)CC2", "percent effect": -25.76}
{"compound": "CC(C)N(C)[C@@H]1CCN(Cc2nccs2)[C@H]1Cc1ccncc1.O=C(O)C(F)(F)F.O=C(O)C(F)(F)F.O=C(O)C(F)(F)F", "percent effect": -4.764}